PubChem BioAssay AID504791, Drosophila RNAi Screening Center, 2011
The deposit covers about 23,000 reagents; below is a random part of those with a known target gene and a result. Of all reagents, 199 (0.86%) got an active call. 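Plate-scaled ratios behind the calls are not deposited; printed light signals are raw; many rows marked increased or decreased are still called inactive.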 A number with no mark means an inactive call. Reagents against one gene are numbered here. Names joined by + are all predicted targets of the reagent.

- Test: 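Factors in Argonaute-based small RNA production and activity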 (primary screen)
- Cells: Drosophila S2-derived reporter cells
- Reagent: long dsRNA against Drosophila genes, about 150-250 ng dsRNA per well (siRNA assay); about 80-120 ng (miRNA assay)
- Duration: about 5 days (siRNA assay); about 4 days (miRNA assay)
- Treatment: copper sulfate induction of reporters: 25 µM (siRNA assay); 200 mM stated (miRNA assay), 1-2 days before reading
- Read-out: 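Dual luciferase assay: Renilla to firefly signal ratio in each well, scaled to the mean ratio of its plate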
- Direction: siRNA reporter hit score: higher = 3 marks a strong hit with raised ratio; -3 a strong hit with lowered ratio
- Hit rule: 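First-pass picks had plate-scaled ratios over 1.5 for the siRNA assay, over 1.6 for the miRNA assay, or under 0.6; two distinct dsRNAs had to score alike on retest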

no.	Gene	dsRNA no.	siRNA reporter hit score	miRNA reporter change	stable assay Renilla, run 1 (luminescence)	stable assay firefly, run 1 (luminescence)
1	a6	1			8387	5.60e5
2	Ugt35D1 (UDP-glycosyltransferase family 35 member D1)	1			6530	5.15e5
3	CG12885	1			6807	5.04e5
4	MED23 + CG3700	1			6443	3.71e5
5	MED23 + CG3700	2			6828	8.57e5
6	Ret (Ret oncogene)	1			10811	1.27e6
7	Ret (Ret oncogene)	2			7131	3.63e5
8	Gs2 (Glutamine synthetase 2)	1			5368	4.68e5
9	TotE (Turandot E)	1			7698	4.60e5
10	Nhe1 (Na[+]/H[+] hydrogen exchanger 1)	1			9995	4.04e5
11	CG17919	1			9171	4.03e5
12	CG14669	1			4187	2.28e5
13	CG14669	2			6650	3.99e5
14	CG14669	3			6524	4.21e5
15	CG14669	4			6843	4.03e5
16	Prp31 (Pre-mRNA processing factor 31)	1			11197	3.71e5
17	NimC1 (Nimrod C1)	1			7779	3.66e5
18	CG32982	1			4624	3.17e5
19	CG32982	2			8498	5.56e5
20	CG32982	3			4580	4.01e5
21	CG32982	4			6807	5.05e5
22	CG32982	5			8493	4.31e5
23	CG17839	1			8960	4.39e5
24	CG17839	2		reporter ratio lowered past the hit cutoff	8159	4.24e5
25	cno (canoe)	1			5900	3.86e5
26	cno (canoe)	2	3		6607	2.49e5
27	cno (canoe)	3			5219	4.03e5
28	cno (canoe)	4		reporter ratio lowered past the hit cutoff		
29	Mad1 (Mitotic arrest-deficient 1)	1			7343	4.78e5
30	CG33769	1			8425	4.67e5
31	CG13226	1			6148	4.13e5

9 entries from above, set out differently.
| Gene | dsRNA no. | siRNA reporter hit score | miRNA reporter change | stable assay Renilla, run 1 (luminescence) | stable assay firefly, run 1 (luminescence) |
| --- | --- | --- | --- | --- | --- |
| NimC1 (Nimrod C1) | 1 | – | – | 7779 | 3.66e5 |
| CG32982 | 1 | – | – | 4624 | 3.17e5 |
| CG32982 | 2 | – | – | 8498 | 5.56e5 |
| CG32982 | 3 | – | – | 4580 | 4.01e5 |
| CG32982 | 4 | – | – | 6807 | 5.05e5 |
| CG32982 | 5 | – | – | 8493 | 4.31e5 |
| CG17839 | 1 | – | – | 8960 | 4.39e5 |
| CG17839 | 2 | – | reporter ratio lowered past the hit cutoff | 8159 | 4.24e5 |
| cno (canoe) | 1 | – | – | 5900 | 3.86e5 |

Additional reagents follow.
no.	Gene	dsRNA no.	siRNA reporter hit score	miRNA reporter change	stable assay Renilla, run 1 (luminescence)	stable assay firefly, run 1 (luminescence)
32	CG33169	1			5943	4.97e5
33	CG42404	1			8165	4.22e5
34	Ku80	1			8152	4.20e5
35	CG8180	1			11419	5.03e5
36	CG8180	2			4296	1.97e5
37	CG14891	1			9584	3.07e5
38	senju	1			6235	3.53e5
39	CG14829	1			5671	4.60e5
40	Nhe2 (Na[+]/H[+] hydrogen exchanger 2)	1			7107	3.66e5
41	Nhe2 (Na[+]/H[+] hydrogen exchanger 2)	2			7786	4.62e5
42	ms(3)K81 (male sterile (3) K81)	1			7090	4.61e5
43	CG6283	1			6083	3.68e5
44	l(3)05822 (lethal (3) 05822)	1			11124	3.89e5
45	CG13075	1			6538	3.65e5
46	CG7631	1			6691	3.56e5
47	CG12307	1			8335	5.13e5
48	CG33310	1			7230	3.49e5
49	Hus1-like	1			7275	4.47e5
50	Art9 (Arginine methyltransferase 9)	1			7271	4.50e5
51	Sry-delta (Serendipity delta)	1			8656	3.44e5
52	CG17343	1			6463	4.45e5
53	CG17343	2			3504	3.02e5
54	CG13869 + CG11099	1			7015	3.71e5
55	Ir94d (Ionotropic receptor 94d)	1			10026	5.21e5
56	tant (tantalus)	1			5952	3.63e5
57	CG42527 (retired record) + Hr4	1			3795	2.36e5
58	CG42527 (retired record) + Hr4	2			7590	3.36e5
59	CG42527 (retired record) + Hr4	3			4279	4.70e5
60	CG42527 (retired record) + Hr4	4			5191	3.36e5
61	CG42527 (retired record) + Hr4	5			3824	3.25e5
